Reference: publication PMC10313822, “Disruption of ER ion homeostasis maintained by an ER anion channel CLCC1 contributes to ALS-like pathologies” (Cell Research, 2023)
Residue numbers refer to the chain shown, from its start. Results are given in words; binding and its absence hold for the method and conditions named. For some assays here: In cells and extracts the contact can be indirect. Some results given as binding are weak or reduced against the parent protein; the word gives no strength. For some assays here: Sequences can lack the tags named with a protein.

Legend:
[1] = biological target: differentially tagged CLCC1 co-expressed in the same cells (not stated (human or mouse cDNA cloned)) (UniProt Q99LI2); assay: co-IP; differentially tagged CLCC1 co-expressed in the same cells; lysis in TBS with 1% DDM, antibody on Dynabeads, washes with 0.025% DDM
[2] = biological target: T1, exogenously tagged CLCC1 (exogenous mCLCC1 of Fig. S2b) (mouse) (UniProt Q99LI2); assay: co-IP; exogenously tagged CLCC1 with endogenous CLCC1; lysis in TBS with 1% DDM, antibody on Dynabeads, washes with 0.025% DDM
T1 sequence: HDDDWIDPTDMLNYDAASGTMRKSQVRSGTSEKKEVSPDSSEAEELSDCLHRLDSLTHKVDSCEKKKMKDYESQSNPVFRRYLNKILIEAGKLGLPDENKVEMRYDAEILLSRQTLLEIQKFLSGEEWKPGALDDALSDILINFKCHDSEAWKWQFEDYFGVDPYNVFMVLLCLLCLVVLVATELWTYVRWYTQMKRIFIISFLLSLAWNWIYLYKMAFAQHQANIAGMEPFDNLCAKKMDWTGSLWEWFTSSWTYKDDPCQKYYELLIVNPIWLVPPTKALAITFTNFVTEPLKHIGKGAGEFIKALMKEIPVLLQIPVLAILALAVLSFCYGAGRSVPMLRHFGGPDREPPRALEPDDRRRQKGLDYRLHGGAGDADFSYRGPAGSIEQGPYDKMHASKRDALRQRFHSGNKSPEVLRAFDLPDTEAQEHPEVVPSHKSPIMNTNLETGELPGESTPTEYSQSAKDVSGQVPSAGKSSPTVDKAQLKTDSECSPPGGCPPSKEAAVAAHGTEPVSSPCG

[3] = biological target: T2, exogenous K298A mutant mouse CLCC1, doxycycline-induced in 293FT cells (mouse) (UniProt Q99LI2); assay: co-IP; 293FT cells stably carrying doxycycline-inducible mCLCC1 (WT or K298A), induced with Dox; exogenous mCLCC1 with endogenous hCLCC1
T2 sequence: T1 sequence with K280A

[4] = biological target: T3, exogenous WT mouse CLCC1, doxycycline-induced in 293FT cells (mouse) (UniProt Q99LI2); assay: as above
T3 sequence: T1 sequence

[5] = biological target: purified full-length CLCC1 (native gel) (not stated (human or mouse cDNA cloned)) (UniProt Q99LI2); assay: native gel or EMSA; native gel of purified full-length CLCC1; both purified

B1: differentially tagged CLCC1 co-expressed in the same cells (protein, UniProt Q99LI2 19-539)
chain: T1 sequence
Q: Which binding [1] does the source give for B1 here?
A: binds

B2: endogenous human CLCC1 (Chloride Channel CLIC Like 1) (protein, UniProt Q96S66-1 19-551)
chain: HDDDWIDPTDMLNYDAASGTMRKSQAKYGISGEKDVSPDLSCADEISECYHKLDSLTYKIDECEKKKREDYESQSNPVFRRYLNKILIEAGKLGLPDENKGDMHYDAEIILKRETLLEIQKFLNGEDWKPGALDDALSDILINFKFHDFETWKWRFEDSFGVDPYNVLMVLLCLLCIVVLVATELWTYVRWYTQLRRVLIISFLFSLGWNWMYLYKLAFAQHQAEVAKMEPLNNVCAKKMDWTGSIWEWFRSSWTYKDDPCQKYYELLLVNPIWLVPPTKALAVTFTTFVTEPLKHIGKGTGEFIKALMKEIPALLHLPVLIIMALAILSFCYGAGKSVHVLRHIGGPESEPPQALRPRDRRRQEEIDYRPDGGAGDADFHYRGQMGPTEQGPYAKTYEGRREILRERDVDLRFQTGNKSPEVLRAFDVPDAEAREHPTVVPSHKSPVLDTKPKETGGILGEGTPKESSTESSQSAKPVSGQDTSGNTEGSPAAEKAQLKSEAAGSPDQGSTYSPARGVAGPRGQDPVSSPCG
Q: What does the source list for B2?
A: binding [2]: binds; binding [3]: binds; binding [4]: binds

B3: purified full-length CLCC1 (native gel) (protein, UniProt Q99LI2 19-539)
chain: T1 sequence
Q: B3 was tested. Which binding [5] did it give?
A: binds
